From the supplement of paper PMC8728848
Some of the results follow.

Experiments:
Assay in all cases: glycan array binding signal (z-score within array); higher = stronger binding
Settings in all cases: glycan notation: IUPAC condensed, linker removed
Gal(b1-2)Gal = target: Gal(b1-2)Gal
Procedure, shortened: (§1)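 Columns mapping to the same glycan were averaged after glycan names were converted to IUPAC-condensed notation. The data come from 3228 arrays in the Consortium for Functional Glycomics database, limited to those with an available protein sequence. Binding is reported as a within-array Z-score averaged across arrays of one protein sequence and across linkers.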

Gal(b1-3)Gal = target: Gal(b1-3)Gal
Procedure, shortened: as §1

Gal(b1-3)Gal(b1-4)GlcNAc = target: Gal(b1-3)Gal(b1-4)GlcNAc
Procedure, shortened: as §1

Gal(b1-3)GalNAc = target: Gal(b1-3)GalNAc
Procedure, shortened: as §1

[1] = target: Gal(b1-3)GalNAc(a1-3)[Fuc(a1-2)]Gal(b1-4)Glc
Procedure, shortened: as §1

[2] = target: Gal(b1-3)GalNAc(a1-3)[Fuc(a1-2)]Gal(b1-4)GlcNAc
Procedure, shortened: as §1

Gal(b1-3)GalNAc(b1-3)Gal = target: Gal(b1-3)GalNAc(b1-3)Gal
Procedure, shortened: as §1

[3] = target: Gal(b1-3)GalNAc(b1-3)Gal(a1-4)Gal(b1-4)Glc
Procedure, shortened: as §1

[4] = target: Gal(b1-3)GalNAc(b1-4)Gal(b1-4)Glc
Procedure, shortened: as §1

[5] = target: Gal(b1-3)GalNAc(b1-4)[Neu5Ac(a2-3)]Gal(b1-4)Glc
Procedure, shortened: as §1

Gal(b1-3)GlcNAc = target: Gal(b1-3)GlcNAc
Procedure, shortened: as §1

[6] = target: Gal(b1-3)GlcNAc(a1-3)Gal(b1-4)GlcNAc
Procedure, shortened: as §1

[7] = target: Gal(b1-3)GlcNAc(a1-6)Gal(b1-4)GlcNAc
Procedure, shortened: as §1

Gal(b1-3)GlcNAc(b1-2)Man = target: Gal(b1-3)GlcNAc(b1-2)Man
Procedure, shortened: as §1

[8] = target: Gal(b1-3)GlcNAc(b1-2)Man(a1-3)[Gal(b1-3)GlcNAc(b1-2)Man(a1-6)]Man(b1-4)GlcNAc(b1-4)GlcNAc
Procedure, shortened: as §1

[9] = target: Gal(b1-3)GlcNAc(b1-2)Man(a1-3)[Gal(b1-3)GlcNAc(b1-2)Man(a1-6)]Man(b1-4)GlcNAc(b1-4)[Fuc(a1-6)]GlcNAc
Procedure, shortened: as §1

[10] = target: Gal(b1-3)GlcNAc(b1-2)Man(a1-3)[GlcNAc(b1-4)][Gal(b1-3)GlcNAc(b1-2)Man(a1-6)]Man(b1-4)GlcNAc(b1-4)GlcNAc
Procedure, shortened: as §1

[11] = target: Gal(b1-3)GlcNAc(b1-2)[Gal(b1-3)GlcNAc(b1-6)]Man(a1-6)[Gal(b1-3)GlcNAc(b1-2)Man(a1-3)]Man(b1-4)GlcNAc(b1-4)GlcNAc
Procedure, shortened: as §1

[12] = target: Gal(b1-3)GlcNAc(b1-3)Gal(b1-3)GlcNAc
Procedure, shortened: as §1

[13] = target: Gal(b1-3)GlcNAc(b1-3)Gal(b1-4)Glc
Procedure, shortened: as §1

[14] = target: Gal(b1-3)GlcNAc(b1-3)Gal(b1-4)GlcNAc
Procedure, shortened: as §1

[15] = target: Gal(b1-3)GlcNAc(b1-3)Gal(b1-4)GlcNAc(b1-2)Man(a1-3)[Gal(b1-3)GlcNAc(b1-3)Gal(b1-4)GlcNAc(b1-2)Man(a1-6)]Man(b1-4)GlcNAc(b1-4)GlcNAc
Procedure, shortened: as §1

[16] = target: Gal(b1-3)GlcNAc(b1-3)Gal(b1-4)GlcNAc(b1-2)[Gal(b1-3)GlcNAc(b1-3)Gal(b1-4)GlcNAc(b1-6)]Man(a1-6)[Gal(b1-3)GlcNAc(b1-3)Gal(b1-4)GlcNAc(b1-2)Man(a1-3)]Man(b1-4)GlcNAc(b1-4)[Fuc(a1-6)]GlcNAc
Procedure, shortened: as §1

[17] = target: Gal(b1-3)GlcNAc(b1-3)Gal(b1-4)GlcNAc(b1-3)Gal(b1-4)GlcNAc(b1-2)[Gal(b1-3)GlcNAc(b1-3)Gal(b1-4)GlcNAc(b1-3)Gal(b1-4)GlcNAc(b1-6)]Man(a1-6)[Gal(b1-3)GlcNAc(b1-3)Gal(b1-4)GlcNAc(b1-3)Gal(b1-4)GlcNAc(b1-2)Man(a1-3)]Man(b1-4)GlcNAc(b1-4)[Fuc(a1-6)]GlcNAc
Procedure, shortened: as §1

[18] = target: Gal(b1-3)GlcNAc(b1-3)Gal(b1-4)GlcNAc(b1-6)[Gal(b1-3)GlcNAc(b1-3)]Gal(b1-4)Glc
Procedure, shortened: as §1

[19] = target: Gal(b1-3)GlcNAc(b1-3)Gal(b1-4)[Fuc(a1-3)]GlcNAc
Procedure, shortened: as §1

[20] = target: Gal(b1-3)GlcNAc(b1-3)Gal(b1-4)[Fuc(a1-3)]GlcNAc(b1-6)[Gal(b1-3)GlcNAc(b1-3)]Gal(b1-4)Glc
Procedure, shortened: as §1

[21] = target: Gal(b1-3)GlcNAc(b1-3)GalNAc
Procedure, shortened: as §1

[22] = target: Gal(b1-3)GlcNAc(b1-6)Gal(b1-4)GlcNAc
Procedure, shortened: as §1

[23] = target: Gal(b1-3)GlcNAc(b1-6)GalNAc
Procedure, shortened: as §1

[24] = target: Gal(b1-3)GlcNAc(b1-6)[Gal(b1-3)]GalNAc
Procedure, shortened: as §1

Gal(b1-3)GlcNAc6S = target: Gal(b1-3)GlcNAc6S
Procedure, shortened: as §1

[25] = target: Gal(b1-3)[Fuc(a1-4)]GlcNAc
Procedure, shortened: as §1

[26] = target: Gal(b1-3)[Fuc(a1-4)]GlcNAc(b1-2)Man
Procedure, shortened: as §1

[27] = target: Gal(b1-3)[Fuc(a1-4)]GlcNAc(b1-2)Man(a1-3)[Gal(b1-3)[Fuc(a1-4)]GlcNAc(b1-2)Man(a1-6)]Man(b1-4)GlcNAc(b1-4)[Fuc(a1-6)]GlcNAc
Procedure, shortened: as §1

[28] = target: Gal(b1-3)[Fuc(a1-4)]GlcNAc(b1-3)Gal(b1-3)[Fuc(a1-4)]GlcNAc
Procedure, shortened: as §1

[29] = target: Gal(b1-3)[Fuc(a1-4)]GlcNAc(b1-3)Gal(b1-4)[Fuc(a1-3)]GlcNAc
Procedure, shortened: as §1

[30] = target: Gal(b1-3)[Fuc(a1-4)]GlcNAc(b1-6)GalNAc
Procedure, shortened: as §1

[31] = target: Gal(b1-3)[GlcNAc(b1-6)]GalNAc
Procedure, shortened: as §1

[32] = target: Gal(b1-3)[Neu5Ac(a2-6)]GalNAc
Procedure, shortened: as §1

[33] = target: Gal(b1-3)[Neu5Ac(a2-6)]GlcNAc(b1-4)Gal(b1-4)Glc
Procedure, shortened: as §1

[34] = target: Gal(b1-3)[Neu5Ac(b2-6)]GalNAc
Procedure, shortened: as §1

Gal(b1-4)Gal = target: Gal(b1-4)Gal
Procedure, shortened: as §1

[35] = target: Gal(b1-4)GalNAc(a1-3)[Fuc(a1-2)]Gal(b1-4)GlcNAc
Procedure, shortened: as §1

[36] = target: Gal(b1-4)GalNAc(b1-3)[Fuc(a1-2)]Gal(b1-4)GlcNAc
Procedure, shortened: as §1

B1: PhypaEULS3 (Physcomitrella patens) (protein)
chain: MLPVRLHCKADPNFNLAAVPGQGPVMVPFSPNDDFQVWYKDVTMSTRVKDETGSSAFSLINKATGQALRHAPEDLAQCLLADYDSNALDQTVLWTMSEDMGQGYCCIRLASQITRNLDVFRGDKKSGGVKEGSPVITFAWKKQDNQIWKMITAILEQKLISEEDLNSAVDHHHHHH
glycan array binding signal (z-score) (Gal(b1-2)Gal): -1.14 | glycan array binding signal (z-score) (Gal(b1-3)Gal): -1.06 | glycan array binding signal (z-score) (Gal(b1-3)Gal(b1-4)GlcNAc): -0.594 | glycan array binding signal (z-score) (Gal(b1-3)GalNAc): 1.06 | glycan array binding signal (z-score) [1]: 0.396 | glycan array binding signal (z-score) [2]: 0.857 | glycan array binding signal (z-score) (Gal(b1-3)GalNAc(b1-3)Gal): -0.393 | glycan array binding signal (z-score) [3]: -0.504 | glycan array binding signal (z-score) [4]: -0.383 | glycan array binding signal (z-score) [5]: -0.222 | glycan array binding signal (z-score) (Gal(b1-3)GlcNAc): -1.3 | glycan array binding signal (z-score) [6]: 0.21 | glycan array binding signal (z-score) [7]: 2.09 | glycan array binding signal (z-score) (Gal(b1-3)GlcNAc(b1-2)Man): 0.702 | glycan array binding signal (z-score) [8]: -1.01 | glycan array binding signal (z-score) [9]: -0.657 | glycan array binding signal (z-score) [10]: 1.05 | glycan array binding signal (z-score) [11]: 0.13 | glycan array binding signal (z-score) [12]: -0.669 | glycan array binding signal (z-score) [13]: -0.828 | glycan array binding signal (z-score) [14]: -1.09 | glycan array binding signal (z-score) [15]: -0.459 | glycan array binding signal (z-score) [16]: -0.384 | glycan array binding signal (z-score) [17]: 0.919 | glycan array binding signal (z-score) [18]: 1.64 | glycan array binding signal (z-score) [19]: 0.815 | glycan array binding signal (z-score) [20]: 0.149 | glycan array binding signal (z-score) [21]: 1.25 | glycan array binding signal (z-score) [22]: 1.01 | glycan array binding signal (z-score) [23]: 1.29 | glycan array binding signal (z-score) [24]: -0.444 | glycan array binding signal (z-score) (Gal(b1-3)GlcNAc6S): 1.42 | glycan array binding signal (z-score) [25]: -0.114 | glycan array binding signal (z-score) [26]: 0.924 | glycan array binding signal (z-score) [27]: -0.195 | glycan array binding signal (z-score) [28]: -0.253 | glycan array binding signal (z-score) [29]: 0.581 | glycan array binding signal (z-score) [30]: -0.015 | glycan array binding signal (z-score) [31]: -0.997 | glycan array binding signal (z-score) [32]: -0.203 | glycan array binding signal (z-score) [33]: 0.491 | glycan array binding signal (z-score) [34]: 0.173 | glycan array binding signal (z-score) (Gal(b1-4)Gal): 0.1 | glycan array binding signal (z-score) [35]: -1.36 | glycan array binding signal (z-score) [36]: -1.04
